Results are given in words; binding and its absence hold for the method and conditions named. In cells and extracts the contact can be indirect. Some entries that bind do so weakly or less than the wild type. Tags and fused reporters may be left off the sequences shown. One block for each binder: values may come before it.
How the values were obtained:
[1] = biological target: T1, neural pentraxin-1 precursor (Nptx1), endogenous in mouse hypothalamus (mouse (endogenous in hypothalamus)) (UniProt Q62443); test: co-IP; hypothalamus lysate of 4-week old mice given Flag labeled wtMkrn3 or mtMkrn3; Flag or Nptx1 detected; lysis 50 mM NaCl, 50 mM Tris pH 7.4, 1% NP-40, washes with 250 mM NaCl, 4°C
T1 sequence: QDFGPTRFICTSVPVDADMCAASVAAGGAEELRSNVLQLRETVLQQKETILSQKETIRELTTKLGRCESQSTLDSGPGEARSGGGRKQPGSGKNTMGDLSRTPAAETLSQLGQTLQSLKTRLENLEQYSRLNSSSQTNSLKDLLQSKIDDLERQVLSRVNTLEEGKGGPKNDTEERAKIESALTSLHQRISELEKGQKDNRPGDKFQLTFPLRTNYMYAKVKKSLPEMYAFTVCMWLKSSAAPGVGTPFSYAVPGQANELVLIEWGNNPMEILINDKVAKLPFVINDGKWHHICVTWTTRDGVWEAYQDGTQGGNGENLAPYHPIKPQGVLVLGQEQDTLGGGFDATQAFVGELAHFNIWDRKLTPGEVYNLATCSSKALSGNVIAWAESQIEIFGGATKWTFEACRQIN

[2] = biological target: T1, neural pentraxin-1 precursor (Nptx1), endogenous in mouse hypothalamus (mouse (endogenous in hypothalamus)); test: co-IP; Nptx1-IP from hypothalamus lysate of 4-, 6- and 10-week old mice given Flag labeled Mkrn3 at 3 weeks; Mkrn3 detected by blot; normalised to equal Nptx1
[3] = biological target: T2, Flag labeled wild type Nptx1 (mouse) (UniProt Q62443); test: co-IP; hypothalamus lysate of 4-week old mice given Flag labeled wtNptx1 or mtNptx1; IP and blot for Mkrn3; lysis 50 mM NaCl, 50 mM Tris pH 7.4, 1% NP-40, washes with 250 mM NaCl, 4°C
T2 sequence: T1 sequence

binding [1]: binds | binding [2]: binds
B1: Flag labeled wild type Mkrn3 (protein, UniProt Q60764 1-544)
chain: MEESTAPIEAHAAAGAEAGAEGGEGVSVPPPPQFEAAGASAGVSSAPLQQASGLAPLLVTPGPAIRRAASLRPAPAEGGGARSGPERNSGSWTKQILCRYYLHGQCKEGDNCRYSHDLSGRRRSRGGQDAQPRASADRGPKMATRWEPPTQEVAEAPPAASSSSLPLIGSAAERGFTEAEIDNAGIRSAAERGFSEAEIDNASLAAGAAAGAGAEGWEGAIEFVPGQPYRGRMVPPHGPEAPLQSPAIEREHMAMGMGMPMPVPMPMPVPMPVPMPLPLCRYAARGQCLRGDRCAYPHGEICDMCGQQALHPWDAAQQEAHRRACVEAHERDMELSFAVQRSMDKVCGICMEVVYEKADPSDRRFGILFSCNHTYCLRCIRRWRSATQFENRISKSCPQCRVSSGFVIPSEFWVEEEEEKEKLVQQYKEGMSQKACRYFAGGLGHCPFGEFCFYKHEYPEGWRDQPPRPDGGGSSSAYWHQVLEPVQLREGNVLFKSRKKEHSVLRLANQLLKKLLCLRGSSSFSDDRWLLLQYQLEEYFSLNL

binding [3]: binds
B2: Makorin ring finger protein 3 (Mkrn3), endogenous in mouse hypothalamus (protein, UniProt Q60764 1-544)
chain: B1 chain

binding [1]: no binding
B3: Flag labeled mutant Mkrn3 without C3HC4 Ring finger motif (347-401) (protein, UniProt Q60764)
chain: MEESTAPIEAHAAAGAEAGAEGGEGVSVPPPPQFEAAGASAGVSSAPLQQASGLAPLLVTPGPAIRRAASLRPAPAEGGGARSGPERNSGSWTKQILCRYYLHGQCKEGDNCRYSHDLSGRRRSRGGQDAQPRASADRGPKMATRWEPPTQEVAEAPPAASSSSLPLIGSAAERGFTEAEIDNAGIRSAAERGFSEAEIDNASLAAGAAAGAGAEGWEGAIEFVPGQPYRGRMVPPHGPEAPLQSPAIEREHMAMGMGMPMPVPMPMPVPMPVPMPLPLCRYAARGQCLRGDRCAYPHGEICDMCGQQALHPWDAAQQEAHRRACVEAHERDMELSFAVQRSMDKVVSSGFVIPSEFWVEEEEEKEKLVQQYKEGMSQKACRYFAGGLGHCPFGEFCFYKHEYPEGWRDQPPRPDGGGSSSAYWHQVLEPVQLREGNVLFKSRKKEHSVLRLANQLLKKLLCLRGSSSFSDDRWLLLQYQLEEYFSLNL
